# Results: PMC4187570
# Protein sequences, listed by entry. Tags and fused reporters are not part of them.
# UniProt Q9Y6K9: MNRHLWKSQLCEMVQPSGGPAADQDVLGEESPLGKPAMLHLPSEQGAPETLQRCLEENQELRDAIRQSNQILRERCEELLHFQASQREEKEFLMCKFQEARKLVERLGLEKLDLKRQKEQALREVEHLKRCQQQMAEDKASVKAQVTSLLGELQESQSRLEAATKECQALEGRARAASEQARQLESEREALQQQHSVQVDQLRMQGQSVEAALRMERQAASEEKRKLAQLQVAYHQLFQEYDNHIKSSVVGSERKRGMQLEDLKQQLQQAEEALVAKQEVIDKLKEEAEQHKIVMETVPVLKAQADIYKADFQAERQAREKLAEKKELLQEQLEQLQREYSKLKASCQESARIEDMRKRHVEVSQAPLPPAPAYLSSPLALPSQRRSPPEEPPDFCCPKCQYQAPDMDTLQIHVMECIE
# No constants are given. Whether binding was seen depends on the method and setting. Binding seen in cells or lysates may run through a third protein. Here binding means that the protein was enriched with, or labelled near, the bait; the list need not be complete. For some assays here: A no says only that the protein was not detected with the bait.
# T1: IKKα (human (endogenous in A549)), O15111
# T1 chain: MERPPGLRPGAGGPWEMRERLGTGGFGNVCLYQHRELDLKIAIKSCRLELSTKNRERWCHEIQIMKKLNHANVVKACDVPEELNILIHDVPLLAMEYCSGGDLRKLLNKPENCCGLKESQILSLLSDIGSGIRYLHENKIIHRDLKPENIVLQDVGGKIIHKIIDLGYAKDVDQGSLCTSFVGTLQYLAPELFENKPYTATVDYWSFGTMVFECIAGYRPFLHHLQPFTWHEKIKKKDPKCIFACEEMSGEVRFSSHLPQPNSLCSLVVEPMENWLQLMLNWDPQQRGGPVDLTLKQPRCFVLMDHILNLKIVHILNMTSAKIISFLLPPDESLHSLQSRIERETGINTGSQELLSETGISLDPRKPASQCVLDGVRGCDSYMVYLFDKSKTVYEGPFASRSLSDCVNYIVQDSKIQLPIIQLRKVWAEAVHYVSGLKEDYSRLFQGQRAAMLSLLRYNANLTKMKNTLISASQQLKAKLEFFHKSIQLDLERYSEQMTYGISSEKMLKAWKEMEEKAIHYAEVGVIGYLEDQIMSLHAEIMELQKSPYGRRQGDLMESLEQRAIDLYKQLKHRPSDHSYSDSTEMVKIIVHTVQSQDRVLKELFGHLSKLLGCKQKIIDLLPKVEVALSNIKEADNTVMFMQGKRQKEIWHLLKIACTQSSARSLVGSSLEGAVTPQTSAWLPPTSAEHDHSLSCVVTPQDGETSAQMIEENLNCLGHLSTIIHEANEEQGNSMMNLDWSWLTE
# T2: IKKα (human (endogenous in A549)) (UniProt O15111)
# T2 sequence: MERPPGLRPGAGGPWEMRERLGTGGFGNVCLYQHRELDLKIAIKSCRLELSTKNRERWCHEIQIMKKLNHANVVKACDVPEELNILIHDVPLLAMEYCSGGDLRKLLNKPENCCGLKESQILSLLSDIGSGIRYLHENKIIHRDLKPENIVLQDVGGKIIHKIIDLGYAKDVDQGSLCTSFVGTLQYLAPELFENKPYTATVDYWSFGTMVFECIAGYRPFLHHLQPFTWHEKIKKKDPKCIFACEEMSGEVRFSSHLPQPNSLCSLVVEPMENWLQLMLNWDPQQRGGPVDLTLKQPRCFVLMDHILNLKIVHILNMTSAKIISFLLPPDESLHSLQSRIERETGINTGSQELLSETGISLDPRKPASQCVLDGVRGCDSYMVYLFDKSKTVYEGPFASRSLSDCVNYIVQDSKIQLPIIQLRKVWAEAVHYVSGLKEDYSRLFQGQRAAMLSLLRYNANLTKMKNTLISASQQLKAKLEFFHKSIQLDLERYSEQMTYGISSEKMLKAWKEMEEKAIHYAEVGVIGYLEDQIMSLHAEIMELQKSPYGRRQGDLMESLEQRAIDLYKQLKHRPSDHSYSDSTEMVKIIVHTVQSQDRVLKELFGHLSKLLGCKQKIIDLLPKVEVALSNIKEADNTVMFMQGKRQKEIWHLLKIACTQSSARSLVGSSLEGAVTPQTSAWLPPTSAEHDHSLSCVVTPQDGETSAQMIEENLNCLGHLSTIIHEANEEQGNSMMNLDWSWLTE
# Tests used:
# Assay in all cases: affinity purification with mass spectrometry; A549 lysate (M-PER), 400 uL with 2 ug agarose-conjugated mouse anti-IKKα or rabbit anti-NEMO antibody, 1 h at room temperature, five PBS washes; SDS-PAGE, in-gel trypsin, LC-MS/MS; scored (FC-A, FC-B, SAINT) against agarose-conjugated isotype IgG and CRAPome controls; resting cells
# [1] = biological target: T1, IKKα (human (endogenous in A549)), …; settings: remark: other sources report otherwise
# [2] = biological target: NEMO (NF-kB essential modulator) (human (endogenous in A549)) (UniProt Q9Y6K9)
# [3] = biological target: T2, IKKα (human (endogenous in A549))
# [4] = biological target: NEMO (NF-kB essential modulator) (human (endogenous in A549)), Q9Y6K9; settings: remark: other sources report otherwise
binding [2],binding [3],Binder,further results
–,–,"Cdc37, Q16543 1-378 (protein) MVDYSVWDHIEVSDDEDETHPNIDTASLFRWRHQARVERMEQFQKEKEELDRGCRECKRKVAECQRKLKELEVAEGGKAELERLQAEAQQLRKEERSWEQKLEEMRKKEKSMPWNVDTLSKDGFSKSMVNTKPEKTEEDSEEVREQKHKTFVEKYEKQIKHFGMLRRWDDSQKYLSDNVHLVCEETANYLVIWCIDLEVEEKCALMEQVAHQTIVMQFILELAKSLKVDPRACFRQFFTKIKTADRQYMEGFNDELEAFKERVRGRAKLRIEKAMKEYEEEERKKRLGPGGLDPVEVYESLPEELQKCFDVKDVQMLQDAISKMDPTDAKYHMQRCIDSGLWVPNSKASEAKEGEEAGPGDPLLEAVPKTGDEKDVSV",binding [1]: no binding
no binding,–,"Cdc37 (protein, UniProt Q16543 1-378) MVDYSVWDHIEVSDDEDETHPNIDTASLFRWRHQARVERMEQFQKEKEELDRGCRECKRKVAECQRKLKELEVAEGGKAELERLQAEAQQLRKEERSWEQKLEEMRKKEKSMPWNVDTLSKDGFSKSMVNTKPEKTEEDSEEVREQKHKTFVEKYEKQIKHFGMLRRWDDSQKYLSDNVHLVCEETANYLVIWCIDLEVEEKCALMEQVAHQTIVMQFILELAKSLKVDPRACFRQFFTKIKTADRQYMEGFNDELEAFKERVRGRAKLRIEKAMKEYEEEERKKRLGPGGLDPVEVYESLPEELQKCFDVKDVQMLQDAISKMDPTDAKYHMQRCIDSGLWVPNSKASEAKEGEEAGPGDPLLEAVPKTGDEKDVSV",–
binds,–,"RBM14 (protein, UniProt Q96PK6 1-669) MKIFVGNVDGADTTPEELAALFAPYGTVMSCAVMKQFAFVHMRENAGALRAIEALHGHELRPGRALVVEMSRPRPLNTWKIFVGNVSAACTSQELRSLFERRGRVIECDVVKDYAFVHMEKEADAKAAIAQLNGKEVKGKRINVELSTKGQKKGPGLAVQSGDKTKKPGAGDTAFPGTGGFSATFDYQQAFGNSTGGFDGQARQPTPPFFGRDRSPLRRSPPRASYVAPLTAQPATYRAQPSVSLGAAYRAQPSASLGVGYRTQPMTAQAASYRAQPSVSLGAPYRGQLASPSSQSAAASSLGPYGGAQPSASALSSYGGQAAAASSLNSYGAQGSSLASYGNQPSSYGAQAASSYGVRAAASSYNTQGAASSLGSYGAQAASYGAQSAASSLAYGAQAASYNAQPSASYNAQSAPYAAQQAASYSSQPAAYVAQPATAAAYASQPAAYAAQATTPMAGSYGAQPVVQTQLNSYGAQASMGLSGSYGAQSAAAATGSYGAAAAYGAQPSATLAAPYRTQSSASLAASYAAQQHPQAAASYRGQPGNAYDGAGQPSAAYLSMSQGAVANANSTPPPYERTRLSPPRASYDDPYKKAVAMSKRYGSDRRLAELSDYRRLSESQLSFRRSPTKSSLDYRRLPDAHSDYARYSGSYNDYLRAAQMHSGYQRRM",–
–,binds,"TMED10 (protein, UniProt P49755 32-219) ISFHLPINSRKCLREEIHKDLLVTGAYEISDQSGGAGGLRSHLKITDSAGHILYSKEDATKGKFAFTTEDYDMFEVCFESKGTGRIPDQLVILDMKHGVEAKNYEEIAKVEKLKPLEVELRRLEDLSESIVNDFAYMKKREEEMRDTNESTNTRVLYFSIFSMFCLIGLATWQVFYLRRFFKAKKLIE",–
–,–,"IKKα, O15111 1-745 (protein) MERPPGLRPGAGGPWEMRERLGTGGFGNVCLYQHRELDLKIAIKSCRLELSTKNRERWCHEIQIMKKLNHANVVKACDVPEELNILIHDVPLLAMEYCSGGDLRKLLNKPENCCGLKESQILSLLSDIGSGIRYLHENKIIHRDLKPENIVLQDVGGKIIHKIIDLGYAKDVDQGSLCTSFVGTLQYLAPELFENKPYTATVDYWSFGTMVFECIAGYRPFLHHLQPFTWHEKIKKKDPKCIFACEEMSGEVRFSSHLPQPNSLCSLVVEPMENWLQLMLNWDPQQRGGPVDLTLKQPRCFVLMDHILNLKIVHILNMTSAKIISFLLPPDESLHSLQSRIERETGINTGSQELLSETGISLDPRKPASQCVLDGVRGCDSYMVYLFDKSKTVYEGPFASRSLSDCVNYIVQDSKIQLPIIQLRKVWAEAVHYVSGLKEDYSRLFQGQRAAMLSLLRYNANLTKMKNTLISASQQLKAKLEFFHKSIQLDLERYSEQMTYGISSEKMLKAWKEMEEKAIHYAEVGVIGYLEDQIMSLHAEIMELQKSPYGRRQGDLMESLEQRAIDLYKQLKHRPSDHSYSDSTEMVKIIVHTVQSQDRVLKELFGHLSKLLGCKQKIIDLLPKVEVALSNIKEADNTVMFMQGKRQKEIWHLLKIACTQSSARSLVGSSLEGAVTPQTSAWLPPTSAEHDHSLSCVVTPQDGETSAQMIEENLNCLGHLSTIIHEANEEQGNSMMNLDWSWLTE",binding [4]: binds
–,binds,"MYO1E (protein, UniProt Q12965 1-1108) MGSKGVYQYHWQSHNVKHSGVDDMVLLSKITENSIVENLKKRYMDDYIFTYIGSVLISVNPFKQMPYFGEKEIEMYQGAAQYENPPHIYALADNMYRNMIIDRENQCVIISGESGAGKTVAAKYIMSYISRVSGGGTKVQHVKDIILQSNPLLEAFGNAKTVRNNNSSRFGKYFEIQFSPGGEPDGGKISNFLLEKSRVVMRNPGERSFHIFYQLIEGASAEQKHSLGITSMDYYYYLSLSGSYKVDDIDDRREFQETLHAMNVIGIFAEEQTLVLQIVAGILHLGNISFKEVGNYAAVESEEFLAFPAYLLGINQDRLKEKLTSRQMDSKWGGKSESIHVTLNVEQACYTRDALAKALHARVFDFLVDSINKAMEKDHEEYNIGVLDIYGFEIFQKNGFEQFCINFVNEKLQQIFIELTLKAEQEEYVQEGIRWTPIEYFNNKIVCDLIENKVNPPGIMSILDDVCATMHAVGEGADQTLLQKLQMQIGSHEHFNSWNQGFIIHHYAGKVSYDMDGFCERNRDVLFMDLIELMQSSELPFIKSLFPENLQADKKGRPTTAGSKIKKQANDLVSTLMKCTPHYIRCIKPNETKKPRDWEESRVKHQVEYLGLKENIRVRRAGYAYRRIFQKFLQRYAILTKATWPSWQGEEKQGVLHLLQSVNMDSDQFQLGRSKVFIKAPESLFLLEEMRERKYDGYARVIQKSWRKFVARKKYVQMREEASDLLLNKKERRRNSINRNFIGDYIGMEEHPELQQFVGKREKIDFADTVTKYDRRFKGVKRDLLLTPKCLYLIGREKVKQGPDKGLVKEVLKRKIEIERILSVSLSTMQDDIFILHEQEYDSLLESVFKTEFLSLLAKRYEEKTQKQLPLKFSNTLELKLKKENWGPWSAGGSRQVQFHQGFGDLAVLKPSNKVLQVSIGPGLPKNSRPTRRNTTQNTGYSSGTQNANYPVRAAPPPPGYHQNGVIRNQYVPYPHAPGSQRSNQKSLYTSMARPPLPRQQSTSSDRVSQTPESLDFLKVPDQGAAGVRRQTTSRPPPAGGRPKPQPKPKPQVPQCKALYAYDAQDTDELSFNANDIIDIIKEDPSGWWTGRLRGKQGLFPNNYVTKI",–
binds,–,"HNRH3_HUMAN (protein, UniProt P31942 1-346) MDWVMKHNGPNDASDGTVRLRGLPFGCSKEEIVQFFQGLEIVPNGITLTMDYQGRSTGEAFVQFASKEIAENALGKHKERIGHRYIEIFRSSRSEIKGFYDPPRRLLGQRPGPYDRPIGGRGGYYGAGRGSMYDRMRRGGDGYDGGYGGFDDYGGYNNYGYGNDGFDDRMRDGRGMGGHGYGGAGDASSGFHGGHFVHMRGLPFRATENDIANFFSPLNPIRVHIDIGADGRATGEADVEFVTHEDAVAAMSKDKNNMQHRYIELFLNSTPGGGSGMGGSGMGGYGRDGMDNQGGYGSVGRMGMGNNYSGGYGTPDGLGGYGRGGGGSGGYYGQGGMSGGGWRGMY",–
–,binds,"DAZAP1 (protein, UniProt Q96EP5 1-407) MNNSGADEIGKLFVGGLDWSTTQETLRSYFSQYGEVVDCVIMKDKTTNQSRGFGFVKFKDPNCVGTVLASRPHTLDGRNIDPKPCTPRGMQPERTRPKEGWQKGPRSDNSKSNKIFVGGIPHNCGETELREYFKKFGVVTEVVMIYDAEKQRPRGFGFITFEDEQSVDQAVNMHFHDIMGKKVEVKRAEPRDSKSQAPGQPGASQWGSRVVPNAANGWAGQPPPTWQQGYGPQGMWVPAGQAIGGYGPPPAGRGAPPPPPPFTSYIVSTPPGGFPPPQGFPQGYGAPPQFSFGYGPPPPPPDQFAPPGVPPPPATPGAAPLAFPPPPSQAAPDMSKPPTAQPDFPYGQYAGYGQDLSGFGQGFSDPSQQPPSYGGPSVPGSGGPPAGGSGFGRGQNHNVQGFHPYRR",–
